# Measurements as given in PubChem BioAssay (EPA / NIEHS).
# By UniProt entry, the sequences of proteins in these tests, tags left out. Where a name states a change or a piece, a line headed by the entry shows the natural chain unless it says otherwise.
# UniProt P10275: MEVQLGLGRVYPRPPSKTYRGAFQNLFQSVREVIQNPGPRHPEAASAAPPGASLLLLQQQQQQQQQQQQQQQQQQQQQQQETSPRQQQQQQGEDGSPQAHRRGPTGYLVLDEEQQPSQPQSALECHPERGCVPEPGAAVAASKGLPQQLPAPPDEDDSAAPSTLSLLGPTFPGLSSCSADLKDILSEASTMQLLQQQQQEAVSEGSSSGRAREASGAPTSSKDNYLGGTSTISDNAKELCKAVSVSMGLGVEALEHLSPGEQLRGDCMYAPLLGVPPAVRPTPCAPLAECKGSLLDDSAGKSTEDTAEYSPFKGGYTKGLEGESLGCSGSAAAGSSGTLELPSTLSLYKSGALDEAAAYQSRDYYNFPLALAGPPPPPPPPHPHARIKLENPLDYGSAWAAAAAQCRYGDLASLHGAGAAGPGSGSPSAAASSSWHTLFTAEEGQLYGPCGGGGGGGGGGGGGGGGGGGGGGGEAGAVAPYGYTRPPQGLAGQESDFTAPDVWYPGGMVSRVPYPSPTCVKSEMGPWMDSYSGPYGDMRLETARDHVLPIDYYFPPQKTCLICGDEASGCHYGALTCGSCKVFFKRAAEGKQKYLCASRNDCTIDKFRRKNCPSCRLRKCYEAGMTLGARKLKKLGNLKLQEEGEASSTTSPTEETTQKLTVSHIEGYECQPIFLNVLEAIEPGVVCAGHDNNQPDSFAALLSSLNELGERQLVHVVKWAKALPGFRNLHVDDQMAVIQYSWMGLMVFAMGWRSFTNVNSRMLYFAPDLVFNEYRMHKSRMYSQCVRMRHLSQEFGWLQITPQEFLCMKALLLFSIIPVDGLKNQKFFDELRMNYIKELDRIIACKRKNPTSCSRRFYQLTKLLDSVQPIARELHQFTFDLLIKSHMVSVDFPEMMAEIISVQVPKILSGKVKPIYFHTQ
# UniProt Q92731, whole entry, looked up: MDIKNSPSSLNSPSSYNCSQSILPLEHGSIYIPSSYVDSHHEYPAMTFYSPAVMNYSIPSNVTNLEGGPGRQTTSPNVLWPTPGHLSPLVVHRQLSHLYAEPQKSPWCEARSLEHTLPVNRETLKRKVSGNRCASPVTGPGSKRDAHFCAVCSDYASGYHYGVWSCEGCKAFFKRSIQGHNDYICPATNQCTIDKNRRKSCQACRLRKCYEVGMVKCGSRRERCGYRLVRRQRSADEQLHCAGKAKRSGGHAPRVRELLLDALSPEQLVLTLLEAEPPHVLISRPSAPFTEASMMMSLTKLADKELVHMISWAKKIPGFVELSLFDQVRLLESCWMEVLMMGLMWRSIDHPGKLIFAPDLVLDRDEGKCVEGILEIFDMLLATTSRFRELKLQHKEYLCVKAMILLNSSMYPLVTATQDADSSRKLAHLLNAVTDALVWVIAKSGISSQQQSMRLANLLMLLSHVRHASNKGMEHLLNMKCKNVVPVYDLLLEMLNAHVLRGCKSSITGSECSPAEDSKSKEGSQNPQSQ
# UniProt P04386, whole entry, looked up: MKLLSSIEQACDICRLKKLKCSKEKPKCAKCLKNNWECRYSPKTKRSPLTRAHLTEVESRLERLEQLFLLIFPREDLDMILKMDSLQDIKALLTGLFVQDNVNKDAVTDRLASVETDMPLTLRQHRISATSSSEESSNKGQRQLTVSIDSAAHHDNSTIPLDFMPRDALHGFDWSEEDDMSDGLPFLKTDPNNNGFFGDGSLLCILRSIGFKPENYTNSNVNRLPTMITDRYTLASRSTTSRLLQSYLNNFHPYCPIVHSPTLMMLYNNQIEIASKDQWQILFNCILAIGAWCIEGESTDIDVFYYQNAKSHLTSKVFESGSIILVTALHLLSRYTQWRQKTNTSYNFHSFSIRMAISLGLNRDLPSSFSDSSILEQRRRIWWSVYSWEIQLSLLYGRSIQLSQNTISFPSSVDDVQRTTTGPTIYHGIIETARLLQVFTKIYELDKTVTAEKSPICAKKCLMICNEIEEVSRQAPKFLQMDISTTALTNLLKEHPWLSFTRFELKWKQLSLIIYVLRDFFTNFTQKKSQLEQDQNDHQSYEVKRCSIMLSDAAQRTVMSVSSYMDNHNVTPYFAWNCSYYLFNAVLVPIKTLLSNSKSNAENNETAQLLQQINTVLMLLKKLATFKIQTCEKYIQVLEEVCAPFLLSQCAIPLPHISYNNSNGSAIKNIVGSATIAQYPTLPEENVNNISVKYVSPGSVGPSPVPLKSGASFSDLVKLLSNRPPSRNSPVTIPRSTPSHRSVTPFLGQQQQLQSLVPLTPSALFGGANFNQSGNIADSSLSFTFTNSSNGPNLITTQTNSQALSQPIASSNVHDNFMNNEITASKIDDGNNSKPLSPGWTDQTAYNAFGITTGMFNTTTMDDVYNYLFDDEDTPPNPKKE
# UniProt P15204: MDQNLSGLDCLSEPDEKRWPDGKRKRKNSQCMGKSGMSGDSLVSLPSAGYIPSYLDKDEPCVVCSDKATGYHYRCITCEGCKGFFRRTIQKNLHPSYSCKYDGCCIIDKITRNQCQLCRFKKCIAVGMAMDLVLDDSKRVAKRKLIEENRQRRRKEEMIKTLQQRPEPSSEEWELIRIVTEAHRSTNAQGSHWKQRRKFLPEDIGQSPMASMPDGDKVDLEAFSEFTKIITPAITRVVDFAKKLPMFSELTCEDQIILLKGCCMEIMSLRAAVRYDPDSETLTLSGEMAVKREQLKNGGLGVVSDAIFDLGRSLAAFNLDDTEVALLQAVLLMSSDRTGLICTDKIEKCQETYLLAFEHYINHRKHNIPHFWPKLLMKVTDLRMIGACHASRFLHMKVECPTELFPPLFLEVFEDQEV
# UniProt P37231: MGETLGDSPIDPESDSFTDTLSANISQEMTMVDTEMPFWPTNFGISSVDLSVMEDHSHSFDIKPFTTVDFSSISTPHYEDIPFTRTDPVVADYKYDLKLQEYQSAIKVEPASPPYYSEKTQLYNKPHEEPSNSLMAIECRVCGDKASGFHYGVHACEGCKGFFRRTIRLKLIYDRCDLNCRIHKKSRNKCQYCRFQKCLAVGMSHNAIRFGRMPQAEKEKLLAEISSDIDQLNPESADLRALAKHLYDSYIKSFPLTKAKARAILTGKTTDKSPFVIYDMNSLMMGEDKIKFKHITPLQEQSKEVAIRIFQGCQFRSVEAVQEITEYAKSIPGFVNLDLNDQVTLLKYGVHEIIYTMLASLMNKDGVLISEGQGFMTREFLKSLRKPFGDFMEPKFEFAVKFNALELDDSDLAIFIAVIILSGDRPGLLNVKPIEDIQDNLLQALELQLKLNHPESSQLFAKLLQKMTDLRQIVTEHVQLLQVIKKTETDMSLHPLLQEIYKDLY
# UniProt P37238, whole entry, looked up: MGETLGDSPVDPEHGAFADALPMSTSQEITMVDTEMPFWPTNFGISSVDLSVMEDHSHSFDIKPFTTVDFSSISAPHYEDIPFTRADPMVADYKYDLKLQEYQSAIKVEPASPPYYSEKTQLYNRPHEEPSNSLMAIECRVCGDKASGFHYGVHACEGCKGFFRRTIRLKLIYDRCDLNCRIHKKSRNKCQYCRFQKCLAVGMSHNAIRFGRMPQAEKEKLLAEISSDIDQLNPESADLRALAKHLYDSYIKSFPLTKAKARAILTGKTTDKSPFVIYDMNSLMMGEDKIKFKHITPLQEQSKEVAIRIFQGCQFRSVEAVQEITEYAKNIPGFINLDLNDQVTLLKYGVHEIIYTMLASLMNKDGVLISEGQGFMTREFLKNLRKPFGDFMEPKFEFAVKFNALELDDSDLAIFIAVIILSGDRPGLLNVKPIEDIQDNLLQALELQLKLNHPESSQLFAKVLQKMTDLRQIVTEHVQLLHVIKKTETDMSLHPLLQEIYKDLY
# UniProt P10827: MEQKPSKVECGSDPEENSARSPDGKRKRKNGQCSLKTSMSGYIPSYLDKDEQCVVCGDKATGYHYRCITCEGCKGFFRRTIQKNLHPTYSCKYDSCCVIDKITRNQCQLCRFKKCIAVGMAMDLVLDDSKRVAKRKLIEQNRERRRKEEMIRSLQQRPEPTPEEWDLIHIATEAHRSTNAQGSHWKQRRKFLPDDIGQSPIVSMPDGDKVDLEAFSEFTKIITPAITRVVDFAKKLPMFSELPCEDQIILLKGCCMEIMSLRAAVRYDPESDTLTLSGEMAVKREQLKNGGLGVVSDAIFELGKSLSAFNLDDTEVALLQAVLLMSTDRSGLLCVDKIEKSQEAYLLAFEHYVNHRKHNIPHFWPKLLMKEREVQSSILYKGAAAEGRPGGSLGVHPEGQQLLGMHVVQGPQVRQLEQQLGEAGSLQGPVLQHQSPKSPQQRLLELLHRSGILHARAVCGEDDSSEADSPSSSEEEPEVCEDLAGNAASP
# The shares of active, inactive and inconclusive entries below differ from those in the screen. For some assays here: Potencies beside an inconclusive call are fits to weak or partial responses and may not hold up. Activity calls are given as the source filed them. The calls were made as follows: active = hit-call score of the fitted dose curve at least 0.9, where 1 is the maximum; inconclusive = response in the unintended direction; inactive = score below 0.9.
# Experiments:
# [1] = biological target: AR (gene 367) (UniProt P10275); assay: ACEA_AR_agonist_80hr: ACEA Biosciences xCELLigence Real-Time Cell Analysis on Androgen Receptor Agonism for Proliferation (AID 2283783);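 also: hits increase impedance growth signal above DMSO baseline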
# Outline: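 Real-time cell-growth kinetics were recorded by electrode impedance in 22Rv1 cells exposed to test chemicals up to 100 uM final; the 80 h timepoint served as the readout, fitted upward relative to DMSO controls, in biological duplicate.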
# [2] = biological target: human Androgen Receptor (AR), AR (gene 367) (UniProt P10275); assay: ATG_hAR_XSP1: Attagene TRANS-FACTORIAL Multi-Species (XSP1) HepG2 Assay for human Androgen Receptor (AR) (AID 2283785)
# [3] = system: turtle Androgen Receptor (AR), gene 101947425; assay: ATG_trAR_XSP1: Attagene TRANS-FACTORIAL Multi-Species (XSP1) HepG2 Assay for turtle Androgen Receptor (AR) (AID 2283786)
# Outline: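 Partial androgen stimulation is provided by 3 nM 6-alpha-fluorotestosterone in a multi-species trans-factorial panel expressing a turtle AR–GAL4 fusion in HepG2. After 24 h, reporter mRNA is measured by RT-PCR and capillary electrophoresis and fitted upward against DMSO.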
# [4] = biological target: Estrogen receptor beta (Homo sapiens) (UniProt Q92731); assay: ATG_hERb_XSP1: Attagene TRANS-FACTORIAL Multi-Species (XSP1) HepG2 Assay for human Estrogen Receptor (ESR2) (AID 2283788)
# Outline: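 Multiplexed trans-activation in transfected HepG2: ERβ-Gal4 reporter transcripts after 24 h treatment, detected by RT-PCR plus capillary electrophoresis.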
# [5] = biological target: GAL4 Transcription Factor (Internal Marker), GAL4 (gene 855828) (UniProt P04386); assay: ATG_GAL4_XSP1: Attagene TRANS-FACTORIAL Multi-Species (XSP1) HepG2 Assay for GAL4 Transcription Factor (Internal Marker) (AID 2283789)
# Outline: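 This background-control endpoint measures GAL4-driven reporter mRNA via RT-PCR and capillary electrophoresis of labelled fragments. Transiently transfected HepG2 cells were treated 24 h, with 3 nM 6-alpha-fluorotestosterone included, and gain-of-signal was fitted against DMSO.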
# [6] = ATG_M_19_XSP1: Attagene TRANS-FACTORIAL Multi-Species (XSP1) HepG2 Assay for M19 Transcription Factor (Internal Marker) (AID 2283798)
# Outline: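 Readout is reporter mRNA induction quantified via RT-PCR, 6-FAM labeling, HpaI digestion and capillary electrophoresis, fitted in the positive direction versus DMSO baseline. Transfected HepG2 cells exposed 24 h, medium including 3 nM 6-alpha-fluorotestosterone.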
# [7] = ATG_M_32_XSP1: Attagene TRANS-FACTORIAL Multi-Species (XSP1) HepG2 Assay for M32 Transcription Factor (Internal Marker) (AID 2283799)
# Outline: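 Reporter transcripts from the M32 internal-control unit measured by RT-PCR, FAM labelling, HpaI digestion and capillary electrophoresis after 24 h compound exposure of transfected HepG2, 3 nM 6-alpha-fluorotestosterone included; DMSO baseline, positive-direction fit.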
# [8] = system: zebrafish Peroxisome Proliferator-activated Receptor gamma (PPARg), gene 557037; assay: ATG_zfPPARg_XSP1: Attagene TRANS-FACTORIAL Multi-Species (XSP1) HepG2 Assay for zebrafish Peroxisome Proliferator-activated Receptor gamma (PPARg) (AID 2283801)
# Outline: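 Trans-activation readout of chimeric zebrafish PPARg–GAL4 in transiently transfected human HepG2 cells, 24 h chemical exposure (medium includes 3 nM 6-alpha-fluorotestosterone). Reporter transcripts measured by RT-PCR and capillary electrophoresis, fitted as gain over DMSO.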
# [9] = biological target: frog Thyroid hormone Receptor alpha (TRa), thra-a (gene 397942) (UniProt P15204); assay: ATG_frTRa_XSP1: Attagene TRANS-FACTORIAL Multi-Species (XSP1) HepG2 Assay for frog Thyroid hormone Receptor alpha (TRa) (AID 2283804)
# Outline: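 Reporter transcript induction, measured by RT-PCR with 6-FAM labelling and capillary electrophoresis, 24 hr after dosing transiently transfected HepG2 cells expressing a frog TRa-GAL4 fusion; medium contained 3 nM 6-alpha-fluorotestosterone; increase over DMSO scored.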
# [10] = system: turtle Thyroid Hormone Receptor, alpha (TRa), gene 101949057; assay: ATG_trTRa_XSP1: Attagene TRANS-FACTORIAL Multi-Species (XSP1) HepG2 Assay for turtle Thyroid Hormone Receptor, alpha (TRa) (AID 2283806)
# Outline: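 After 24 h chemical exposure, reporter transcripts were measured by RT-PCR with fluorescent primer extension, HpaI digestion and capillary electrophoresis. Cells were transiently transfected HepG2 expressing exogenous NR-Gal4 chimeras; medium contained 3 nM 6-alpha-fluorotestosterone; fitted upward relative to DMSO.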
# [11] = STM_H9_NormalizedViability: Cytotoxicity Assessment at 120 hours in the Stemina devTOX quickPredict H9 human embryonic stem cell (hESC)-based Assay (AID 2283784)
# Outline: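 CellTiter-Fluor RFU, background-subtracted, expressed relative to 0.1% DMSO neutral control by plate. Pluripotent H9 cells; treatment with daily re-dosing. Plates carried 1uM methotrexate (positive) and 5 nM methotrexate (negative) references.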
# [12] = biological target: AR (gene 367) (UniProt P10275); assay: ACEA_AR_antagonist_80hr: ACEA Biosciences xCELLigence Real-Time Cell Analysis on Androgen Receptor Antagonism for Proliferation (AID 2283787);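 also: 22Rv1 human prostate cancer cells with growth followed by electrical impedance; hits lower the impedance growth signal relative to DMSO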
# Outline: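 Using 22Rv1 cells held in assay medium, we dosed compounds (100 uM maximum final, 1:4 serial, eight points, 0.5% DMSO at top) and recorded cell-electrode impedance; the 80 hr timepoint was analyzed against DMSO.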
# [13] = ATG_M_06_XSP1: Attagene TRANS-FACTORIAL Multi-Species (XSP1) HepG2 Assay for M06 Transcription Factor (Internal Marker) (AID 2283790)
# Outline: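 This background-control readout tracks M06 reporter mRNA, measured by RT-PCR and capillary electrophoresis. HepG2 cells transiently carrying the GAL4-UAS reporter panel were dosed for 24 h with 3 nM 6-alpha-fluorotestosterone added for partial AR stimulation; increases were scored relative to DMSO.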
# [14] = ATG_M_61_XSP1: Attagene TRANS-FACTORIAL Multi-Species (XSP1) HepG2 Assay for M61 Transcription Factor (Internal Marker) (AID 2283797)
# Outline: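 Background-control readout: reporter transcripts measured by RT-PCR and capillary electrophoresis 24 h after dosing transiently transfected HepG2 multi-reporter cells, with 3 nM 6-alpha-fluorotestosterone present. Fitted in the positive direction relative to DMSO.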
# [15] = biological target: Peroxisome proliferator-activated receptor gamma (Homo sapiens) (UniProt P37231); assay: ATG_hPPARg_XSP1: Attagene TRANS-FACTORIAL Multi-Species (XSP1) HepG2 Assay for human Peroxisome Proliferator-activated Receptor gamma (PPARg) (AID 2283800)
# Outline: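 Reporter mRNA induction, measured by RT-PCR with capillary electrophoresis 24 h after dosing, scored as gain over DMSO. Transfected HepG2 cells express exogenous NR-Gal4 chimeras driving GAL4-UAS reporters; medium includes 3 nM 6-alpha-fluorotestosterone.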
# [16] = biological target: mouse Peroxisome Proliferator-activated Receptor gamma (PPARg), Pparg (gene 19016) (UniProt P37238); assay: ATG_mPPARg_XSP1: Attagene TRANS-FACTORIAL Multi-Species (XSP1) HepG2 Assay for mouse Peroxisome Proliferator-activated Receptor gamma (PPARg) (AID 2283802)
# Outline: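 Readout is reporter mRNA induction, measured by RT-PCR with 6-FAM labelling, HpaI digestion and capillary electrophoresis, 24 h post-dose relative to DMSO. Transient multi-reporter transfection of human HepG2 with mouse PPARg–GAL4 fusion; 3 nM 6-alpha-fluorotestosterone included.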
# [17] = biological target: Nuclear receptor subfamily 1 group I member 2 (Mus musculus) (UniProt O54915); assay: ATG_mPXR_XSP1: Attagene TRANS-FACTORIAL Multi-Species (XSP1) HepG2 Assay for mouse Pregnane X Receptor (PXR) (AID 2283803)
# Outline: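 Transiently transfected HepG2 cells expressing a receptor-Gal4 chimera drive a GAL4-UAS reporter; 3 nM 6-alpha-fluorotestosterone included. Reporter mRNA read 24 h post-dose by RT-PCR and capillary electrophoresis; gain of signal relative to DMSO.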
# [18] = biological target: human Thyroid hormone Receptor alpha (TRa), THRA (gene 7067) (UniProt P10827); assay: ATG_hTRa_XSP1: Attagene TRANS-FACTORIAL Multi-Species (XSP1) HepG2 Assay for human Thyroid hormone Receptor alpha (TRa) (AID 2283805)
# Outline: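 Reporter transcripts from the human TRa-Gal4 TRANS unit quantified by RT-PCR, fluorescent labeling and capillary electrophoresis after 24 hours of chemical exposure in transfected HepG2 cells; medium contains 3 nM 6-alpha-fluorotestosterone. Positive direction fit against DMSO.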
compound,measurement,setting,value
Cc1c2ccccc2c(C)c2c1ccc1ccccc12,AC50,[1],inconclusive: 50 µM
same,AC50,[2],inconclusive: 6.63 µM
same,outcome,[3],inactive
same,outcome,[4],inactive
same,outcome,[5],inactive
same,AC50,[6],inconclusive: 7.98 µM
same,outcome,[7],inactive
same,AC50,[8],inconclusive: 33.4 µM
same,AC50,[9],inconclusive: 8.11 µM
same,AC50,[10],inconclusive: 7.77 µM
Cc1cn([C@H]2C[C@H](N=[N+]=[N-])[C@@H](CO)O2)c(=O)[nH]c1=O,outcome,[11],inactive
Cc1cc(CCN2CCN(c3nsc4ccccc34)CC2)cc2c1NC(=O)CC2(C)C,AC50,[1],inconclusive: 50 µM
same,AC50,[11],active: 6.3 µM
CCC(=C(c1ccc(O)cc1)c1ccc(OCCN(C)C)cc1)c1ccccc1,AC50,[1],inconclusive: 0.176 µM
O=C1CCCCCCCCCCC(=O)OCCO1,AC50,[11],inconclusive: 2.65 µM
CC(CC=O)CCCC(C)(C)O (centres undefined),AC50,[12],inconclusive: 16.6 µM
CCCCOC(=O)[C@@H](C)Oc1ccc(Oc2ccc(C(F)(F)F)cn2)cc1,AC50,[11],active: 73.8 µM
BrC1CCC(Br)C(Br)CCC(Br)C(Br)CCC1Br (centres undefined),AC50,[1],inconclusive: 0.0132 µM
CCCCC(CC)COC(=O)/C=C/c1ccc(OC)cc1 (centres undefined),AC50,[1],inconclusive: 7.71 µM
same,AC50,[12],inconclusive: 16.6 µM
CN(C)CCOC(c1ccccc1)c1ccccc1,AC50,[11],active: 8.23 µM
CCN(CC)CCNc1ccc(CNC=O)c2sc3ccc(OC)cc3c(=O)c12,AC50,[11],active: 8.22 µM
CCCCCCCCCCCCCCCCOS(=O)(=O)O,outcome,[1],inactive
COc1ccc2cc(S(=O)(=O)N[C@H](CC(=O)N[C@H](Cc3ccc(CN4[C@H](C)CCC[C@@H]4C)cc3)C(=O)N(C)C(C)C)c3ccc4c(c3)OCO4)ccc2c1,AC50,[11],active: 18.9 µM
CCC(C)N(C)C(=O)c1cc2ccccc2c(-c2ccccc2Cl)n1 (centres undefined),outcome,[1],inactive
CCCCCCCCN(C)CCCCCCCC,outcome,[1],inactive
same,outcome,[11],inactive
O=c1n(CC2CO2)c(=O)n(CC2CO2)c(=O)n1CC1CO1 (centres undefined),AC50,[11],active: 1.06 µM
NCc1cccc(C2CCN(C(=O)c3ccc(C#Cc4ccccc4F)o3)CC2)c1,outcome,[1],inactive
C(=C(c1ccccc1)c1ccccc1)c1ccccc1,AC50,[3],inconclusive: 1 µM
same,AC50,[4],active: 0.017 µM
same,AC50,[5],inconclusive: 0.0349 µM
same,AC50,[13],inconclusive: 1 µM
same,AC50,[14],inconclusive: 1 µM
same,outcome,[6],inactive
same,AC50,[7],inconclusive: 0.00387 µM
same,AC50,[15],inconclusive: 0.0445 nM
same,AC50,[16],inconclusive: 0.245 µM
same,outcome,[17],inactive
same,AC50,[9],inconclusive: 0.0692 µM
same,AC50,[18],inconclusive: 1 µM
COc1ccc(S(=O)(=O)N2C(=O)[C@@](c3ccccc3OC)(N3C[C@H](O)C[C@H]3C(=O)N(C)C)c3cc(Cl)ccc32)c(OC)c1,AC50,[1],inconclusive: 0.0742 µM
CCCCOC(=O)c1ccc(O)cc1,AC50,[1],inconclusive: 0.0916 µM
O=C1CCCCC1,AC50,[1],inconclusive: 50 µM

# Not a retest: entries from further up.
compound,measurement,setting,value
C(=C(c1ccccc1)c1ccccc1)c1ccccc1,AC50,[14],inconclusive: 1 µM
same,outcome,[6],inactive
same,AC50,[7],inconclusive: 0.00387 µM
